The assay is described as follows: qHTS Assay to Find Inhibitors of Chronic Active B-Cell Receptor Signaling. The note with it: ABC-DLBCL IkBa-CBG/CBR reporter, luminescence ratio (green luciferase fused to IkBa over red control in TMD8 lymphoma cells), 4 h. The method in brief: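 Concentration-response series (up to 46 uM) were applied to TMD8 dual-reporter cells for 4 h at 37C with doxycycline. Green/red ratio, after filter-overlap correction, defined %Activity; red signal alone was normalised to basal cells and zero luminescence.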

Where [1] appears, read: measured here: CBR red luminescence, cell number.
The mark [2] stands for this setting: measured here: IkBa-CBG green luminescence.

The list shows a part of the results. Shown are side measurements of this screen, not its main read-out; they come without a call. The list favours compounds with an active or inconclusive main result. Potencies come from curve fits of mixed quality, noted in brackets.

Consider `O=c1cc(C(F)(F)F)nc(SCc2cccc3ccccc23)[nH]1`, for which, under setting [1], the half-maximal activity concentration (AC50) is 35.5 µM [falling, single point].
Still for that read-out and setting: to `Cc1ccc(OCC(=O)Nc2ccc(O)c(C(=O)O)c2)cc1C` belongs 16.4 µM [falling, partial curve, poor fit]; to `O=C(Nc1nnc(S(=O)(=O)N2CCCCCC2)s1)c1ccc(Cl)cc1`, 10 µM [rising, partial curve, poor fit]; to `CC(C)N(C)C1CCN(C(=O)Nc2ccc(Cl)c(Cl)c2)CC1`, 35.5 µM [falling, single point].
Turning to `COc1ccc(CNC(=O)CN(C)S(=O)(=O)c2ccc3c(c2)c(=O)n(C)c(=O)n3C)cc1`, the half-maximal activity concentration (AC50) under setting [1] was 6.31 µM [rising, single point].
As to `O=C(OC(C(=O)NCC1CCCO1)c1ccccc1F)c1ccco1` (stereo not drawn), the concentration at half-maximal activity (AC50) under setting [1] was 0.794 µM [rising, full curve, poor fit].
The same measure, in the same setting: the value for `O=C(N=Nc1c(O)n(Cc2ccccc2)c2ccccc12)c1cc2ccccc2cc1O` was 0.651 µM [falling, full curve]; that for `CC/C(=N\NC(N)=O)c1ccc(OC(F)F)cc1` was 20 µM [rising, partial curve, poor fit]; that for `COc1cc(OC)c(NC(=O)Cc2cccs2)cc1Cl` was 1.41 µM [rising, full curve].
Take `CCOC(=O)N1CCN(C(=O)CN(Cc2ccc(Cl)cc2)S(C)(=O)=O)CC1`: the concentration at half-maximal activity (AC50) under setting [1] was 3.66 µM [rising, full curve, poor fit].
Same read-out and setting: the value for `C/C=C(\C)c1nnc(NC(=O)c2ccco2)s1` was 0.0461 µM [rising, partial curve, poor fit]; that for `COc1ccc(Nc2ncnc3ccc(C)cc23)cc1` was 35.5 µM [falling, single point].
As for `CCN(CC)C(=O)C1CCCN(c2ccc([N+](=O)[O-])cc2/C=N/NC(=O)c2cccc(O)c2)C1` (stereo not drawn), under setting [1], the AC50 is 1.03 µM [falling, full curve, poor fit].
With `CC1(C)Cc2ccccc2-c2nc(NN)[nH]c(=O)c21`, the half-maximal activity concentration (AC50) under setting [1] was 2 µM [falling, partial curve, poor fit].
Same read-out and setting: to `Cc1cccc(SCC(=O)Nc2ccccc2[N+](=O)[O-])c1` belongs 12.6 µM [falling, partial curve, poor fit]; to `COCCNCC(=O)Nc1ccc(OC(F)(F)F)cc1`, 5.62 µM [rising, partial curve, poor fit].
On the same count and under the same terms, to `COCC(=O)Nc1cc(C(=O)Nc2ccccc2C)ccc1Cl` belongs 1.26 µM [falling, partial curve, poor fit].
Same read-out and setting: the value for `CCCS(=O)(=O)N1CCCC(C(=O)N2CCCCC2)C1` (stereo not drawn) was 10 µM [rising, single point].
For the molecule `Cc1cc(Nc2c(C)cccc2C)n2nc(C)nc2n1`, the half-maximal activity concentration (AC50) under setting [1] is 32.6 µM [rising, single point].
On to `COc1ccc(CC(=O)NNC(=O)c2nn(Cc3ccccc3)c(=O)c3ccccc23)cc1OC`, for which the half-maximal activity concentration (AC50) under setting [1] was 7.94 µM [falling, partial curve, poor fit].
On the same count and under the same terms, to `Cc1cccc(Cc2nnc(CCC(=O)NCc3cn4ccccc4n3)o2)c1` belongs 1 µM [rising, full curve, poor fit]; to `NNC(=O)c1cc2c(ccc3ccccc32)o1`, 11.2 µM [falling, single point].
Consider `COc1cc(OC)cc(C(=O)Nc2ccc3c(c2)n(C)c(=O)n3C)c1`, for which the AC50 reads like this: under setting [1], 0.631 µM [falling, full curve, poor fit]; under setting [2], 12.6 µM [falling, partial curve, poor fit].
For `ClCc1c2ccccc2cc2ccccc12`, the AC50 under setting [1] is 6.51 µM [rising, single point].
For `O=C(Oc1cccc2cccnc12)c1ccc2c(c1)OCCO2`, the AC50 was 5.8 µM [falling, full curve] under setting [1] and 3.26 µM [falling, full curve] under setting [2].
In the case of `Cc1noc(C)c1CSc1nnc(-c2ccccc2)n1Cc1ccco1`, under setting [1], the concentration at half-maximal activity (AC50) was 35.5 µM [rising, single point].
Still for that read-out and setting: to `C[C@@H](C(=O)Nc1nc2ccc(F)cc2s1)N1C(=O)C2CC=CCC2C1=O` (stereo partly drawn) belongs 6.31 µM [falling, full curve, poor fit]; to `O=C(Nc1nnc(-c2ccc(F)cc2)o1)c1ccco1`, 6.31 µM [falling, partial curve, poor fit].
Same read-out and setting: to `O=C(Cc1ccccc1)Nc1cccc(N2C(=O)C=CC2=O)c1` belongs 14.6 µM [falling, partial curve, poor fit]; to `CCCn1c(=O)c2sccc2n2c(CCCC(=O)NC3CCN(Cc4ccccc4)CC3)nnc12`, 5.62 µM [falling, partial curve, poor fit]; to `CC1CCCCN1C(=O)CSc1nc(C2CC2)nc2c1cnn2-c1ccccc1` (stereo not drawn), 0.366 µM [falling, full curve, poor fit].
As to `CCOC(=O)C(C(=O)OCC)C(Nc1cccc(Br)c1)c1ccccc1` (stereo not drawn), the AC50 under setting [1] was 0.891 µM [falling, full curve, poor fit].
Regarding `Cc1cc(C)n(-c2ccc(C(=O)Nc3ccc4c(c3)OCO4)cc2)n1`, the AC50 under setting [1] is 2.31 µM [falling, full curve].
Consider `CC(=O)NC(CC(=O)O)c1ccc(F)cc1` (stereo not drawn), for which the half-maximal activity concentration (AC50) under setting [1] was 6.31 µM [falling, single point].
The same measure, in the same setting: the value for `Cc1cc(C)n(-c2nc3c(c(=O)[nH]c(=O)n3C)n2C(C)C)n1` was 11.2 µM [rising, partial curve, poor fit].
Take `COC(=O)c1sccc1NC(=O)CSc1ccccc1NS(=O)(=O)c1ccc(F)cc1`: the AC50 under setting [1] is 20.6 µM [falling, single point].
Same read-out and setting: to `O=C(/C=C/c1cccc([N+](=O)[O-])c1)Nc1cccc(NC(=O)c2cccs2)c1` belongs 0.206 µM [falling, full curve, poor fit]; to `COc1ccc(-c2csc(NC(=O)CSc3nc(SC)ns3)n2)cc1`, 20.6 µM [falling, single point]; to `CCSc1ccc(C(=O)Nc2cccc(C)n2)cc1[N+](=O)[O-]`, 0.731 µM [rising, full curve, poor fit].
Still for that read-out and setting: to `CCC(Sc1nc2n[nH]c(C)c2c(=N)n1-c1cc(Cl)ccc1C)C(=O)N1CCOCC1` (stereo not drawn) belongs 29.1 µM [rising, single point]; to `CCOc1nc(C)ccc1-c1noc(-c2ccccn2)n1`, 7.08 µM [rising, partial curve].
`CCN(CC)CCCNC(=O)c1cc2c(-c3cccc(OC)c3)nn(C)c2s1`: the half-maximal activity concentration (AC50) under setting [1] was 20 µM [falling, partial curve, poor fit].
As for `O=C(Nc1ccc(-c2ccc3nncn3n2)cc1)C1CCCCC1`, under setting [1], the concentration at half-maximal activity (AC50) is 12.6 µM [falling, single point].
`CCOc1ccc(N=c2scc(-c3ccccc3)n2CCO)cc1`: under setting [1], the concentration at half-maximal activity (AC50) was 5.17 µM [rising, full curve].
The same measure, in the same setting: the value for `CC(=O)c1sc(NC(=O)CCS(=O)(=O)c2ccccc2)nc1C` was 11.2 µM [falling, partial curve]; that for `COc1ccc(NC(=O)CSc2nnc(COc3ccccc3)n2Cc2ccco2)cc1OC` was 12.6 µM [falling, single point].
Regarding `COc1ccc(CCNC(=O)c2ccccc2Cl)cc1OC`, the half-maximal activity concentration (AC50) under setting [1] is 35.5 µM [falling, single point].
Turning to `CCc1ccc(OCC2NCCc3cc(OC)c(OC)cc32)cc1` (stereo not drawn), under setting [1], the AC50 was 11.2 µM [falling, partial curve].
Same read-out and setting: to `O=C(C1CCC1)N(CCc1ccccc1)Cc1nc2ccccc2c(=O)[nH]1` belongs 11.2 µM [falling, single point]; to `Clc1ccc(SCc2cc(-c3ccc(Cl)cc3)on2)cc1`, 25.9 µM [rising, single point]; to `Cc1cc2cc(CNC(=O)c3ccc4c(c3)OCO4)ccc2[nH]1`, 20 µM [falling, single point].
Still for that read-out and setting: to `O=C(CCC1CCCC1)Nc1ccc(C(=O)NCc2cccnc2)cc1` belongs 1.58 µM [rising, partial curve, poor fit]; to `Cc1ccccc1CN1C[C@@H]2C[C@@H](c3cn[nH]c3-c3ccc(F)cc3)N3CCC[C@@]23C1=O`, 11.2 µM [falling, single point].
Same read-out and setting: to `Nc1nc(Cl)cc(-c2ccccc2)n1` belongs 0.891 µM [falling, full curve, poor fit]; to `COc1ccc2c(c1)CCc1cnc(N)nc1-2`, 31.6 µM [falling, single point].
With `Cn1c(=O)n(C)c2cc(NC(=O)COc3ccc(Cl)cc3)ccc21`, the AC50 under setting [1] is 2 µM [rising, full curve].
For the molecule `COC(=O)N/N=C/c1cn(Cc2ccccc2F)c2ccccc12`, the half-maximal activity concentration (AC50) under setting [1] was 20 µM [falling, single point].
With `COc1ccc(N=Nc2c(C)n[nH]c2C)cc1`, the half-maximal activity concentration (AC50) by setting is: under setting [1], 1.58 µM [rising, partial curve, poor fit]; under setting [2], 7.08 µM [falling, partial curve, poor fit].
Consider `Cc1ccc(CS(=O)(=O)c2ncc(Cl)c(C(=O)Nc3ccc(OC(F)F)cc3)n2)cc1`, for which the AC50 runs as follows: under setting [1], 6.31 µM [falling, partial curve]; under setting [2], 11.2 µM [rising, partial curve].
On to `CC(C)C(NC(=O)c1ccccc1F)C(=O)OCC(=O)c1ccc(F)cc1` (stereo not drawn), for which the AC50 under setting [1] was 6.31 µM [rising, partial curve, poor fit].
Still for that read-out and setting: the value for `CC1CCCN(C2(O)C(=O)Nc3ccc(Cl)cc32)C1` (stereo not drawn) was 11.2 µM [falling, partial curve, poor fit].
For the molecule `COc1cc(NC(=O)CSc2nc(=O)n(CCCN3CCOCC3)c3c2CCC3)cc(OC)c1`, the half-maximal activity concentration (AC50) under setting [1] was 7.31 µM [falling, partial curve, poor fit].
As to `CN(C)CCOCCOc1ccc(Cl)c2ccccc12`, under setting [1], the AC50 was 14.1 µM [falling, single point].
Same read-out and setting: the value for `c1csc(C2C3=C(Nc4ncnn42)c2ccccc2OC3)c1` (stereo not drawn) was 8.91 µM [falling, partial curve, poor fit].

These data come from PubChem BioAssay AID493014 (National Center for Advancing Translational Sciences (NCATS), 2011).
